# Assay results taken from PubChem BioAssay AID1347075 (National Center for Advancing Translational Sciences (NCATS), 2019).
# Hit rate of the full screen: of about 400,000 compounds, about 5,500 (1.4%) were called active. Inconclusive means that the source gave no clear call. Such entries were picked first, then a sample of the others. Calls follow the shape of the dose curve; as a rule, active = well fitted cell-killing curve with a large enough effect; inconclusive = small, poorly fitted or top-dose-only effect, or effect the other way; inactive = flat fitted curve, though single readings scatter. A potency beside an inconclusive call is a rough fit, not a confirmed value.
# Assay: qHTS assay for MDR1-selective chemotherapeutics: Primary screen using the parental adenocarcinoma cell KB-3-1; also: nearly all actives have a fitted effect of over 60% in size
# Conditions: KB-3-1 viability, CellTiter-Glo ATP luminescence, 72 h; activity change, negative = cytotoxic: at 46.1 µM (top of the series)
# Outline: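 Viability of parental KB-3-1 cells, measured by CellTiter-Glo luminescence, followed a 72 h incubation at 37 °C with pinned compounds in phenol-red-free DMEM containing 10% FBS.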
# % is scaled to controls: 0 for no effect and ±100 for the full control effect; potency is read from the fitted curve at half-maximal effect.
Compound,"activity change, negative = cytotoxic",Potency
O=C(NCCc1ccccc1)c1c[nH]c2ccccc2c1=O,inactive: -8.1%,
Clc1ccc(Br)c(-c2nc3ccccc3[nH]2)c1,inactive: 0%,
COCCCNC(=O)/C(C#N)=C/c1c(N2CCN(c3cccc(Cl)c3)CC2)nc2c(C)cccn2c1=O,,"inconclusive: 29.1 µM [cytotoxic, single point]"
COC(=O)c1scc(-c2ccc(C)cc2)c1S(=O)(=O)Nc1cc(Cl)c(OC)cc1OC,inactive: -0.714%,
Cc1ccc(C2NC(=O)c3sc(=S)n(-c4ccccc4)c3N2)cc1 (stereo unspecified),,"inconclusive: 13 µM [cytotoxic, partial curve, poor fit]"
O=C1C=Cc2cccc3ccc(O)c1c23,,"inconclusive: 18.4 µM [cytotoxic, single point]"
Oc1ccccc1-c1n[nH]c(-c2ccccc2O)n1,,"inconclusive: 23.1 µM [cytotoxic, single point]"
Cc1sc2ncnc(N3CCC(C(=O)Nc4nc(-c5ccc(F)cc5)cs4)CC3)c2c1C,,"inconclusive: 23.1 µM [cytotoxic, single point]"
CCOC(=O)[C@]12CCCC=C1N(CCC1=CCCCC1)C(=O)[C@H](CC(=O)NCC13CC4CC(CC(C4)C1)C3)C2,,"inconclusive: 18.4 µM [cytotoxic, single point]"
C[C@H]1COC2=C1C(=O)C(=O)c1c2ccc2c1CCCC2(C)C,,"inconclusive: 29.1 µM [cytotoxic, single point]"
COc1ccc(S(=O)(=O)Nc2ccccn2)cc1OC,,"inconclusive: 23.1 µM [rising, single point]"
Cc1ccc(NC2=CC(=O)CC(c3ccccc3)C2)cc1 (stereo unspecified),,"inconclusive: 5.8 µM [cytotoxic, partial curve]"
COc1cc(NCc2ccccc2O)c2ncccc2c1,inactive: -0.506%,
O=S1(=O)CCOC[C@H](c2ccccc2)N1Cc1ccc(Cl)cc1Cl,,"inconclusive: 29.1 µM [cytotoxic, single point]"
CCOCC(=O)NC1CCc2cc(OC)c(OC)c(OC)c2-c2ccc(SC)c(=O)cc21 (stereo unspecified),,active: 0.0058 µM
OCCCNc1nc(-c2ccc(Cl)cc2)nnc1-c1ccc(Br)cc1,,active: 23.1 µM
Cc1ccc(C(C)C)c(OCc2nn(CC(=O)c3ccc(OC(F)F)cc3)c3[n+]2CCCCC3)c1,,"inconclusive: 29.1 µM [cytotoxic, single point]"
c1ccc(CCNc2ccc3c(c2)Cc2ccccc2-3)nc1,,"inconclusive: 16.4 µM [cytotoxic, single point]"
COc1ccccc1/C=C/c1cnccn1,,"inconclusive: 11.6 µM [cytotoxic, full curve, poor fit]"
CCOc1ccc(NC(=O)CCSc2nc3c(c(CC)c2C#N)C(=O)CC(C)(C)C3)cc1,inactive: 0.763%,
C[C@@H]1CN([C@@H](C)CO)C(=O)CCCn2nncc2CO[C@H]1CN(C)Cc1ccc(C(F)(F)F)cc1,,"inconclusive: 29.1 µM [rising, single point]"
Cc1nc2[nH]c(=O)n(O)c(=O)c2s1,,"inconclusive: 29.1 µM [cytotoxic, single point]"
Cc1csc(NC(=O)c2cn3ccccc3n2)n1,,"inconclusive: 32.6 µM [cytotoxic, single point]"

# 3 records picked at random from those above, as already listed:
Compound,"activity change, negative = cytotoxic",Potency
Cc1nc2[nH]c(=O)n(O)c(=O)c2s1,,"inconclusive: 29.1 µM [cytotoxic, single point]"
Cc1csc(NC(=O)c2cn3ccccc3n2)n1,,"inconclusive: 32.6 µM [cytotoxic, single point]"
Cc1sc2ncnc(N3CCC(C(=O)Nc4nc(-c5ccc(F)cc5)cs4)CC3)c2c1C,,"inconclusive: 23.1 µM [cytotoxic, single point]"

# (listing goes on)

Compound,"activity change, negative = cytotoxic",Potency
Oc1cc(NCc2ccc(Cl)cc2)cc2cccnc12,,active: 16.4 µM
CCOc1cccc2sc(NN)nc12,,"inconclusive: 29.1 µM [rising, single point]"
O=C(/C=C/c1ccco1)Nc1ccc2c(c1)OCO2,,"inconclusive: 29.1 µM [cytotoxic, single point]"
COc1cc(C(=O)Nc2nc(-c3ccc(Cl)cc3)c(C)s2)ccc1OCC(=O)Nc1ccc(F)cc1,,active: 13 µM
C[C@@H]1CN([C@@H](C)CO)S(=O)(=O)c2ccc(Br)cc2O[C@@H]1CN(C)C(=O)c1ccccn1,inactive: 17.3%,
Cc1ccc(C(=O)O/N=C/C2=C(Cl)c3ccccc3CC2)cc1,,"inconclusive: 29.1 µM [cytotoxic, single point]"
NCCCCCCNS(=O)(=O)c1ccc2c(Cl)cccc2c1,,"inconclusive: 14.6 µM [cytotoxic, partial curve, poor fit]"
S=c1nc[nH]c2c1ncn2C1CCCO1 (stereo unspecified),,active: 4.11 µM
CCN(CC)C(C(=O)Nc1ccc(C(C)C)cc1)c1ccc2c(c1)OCO2 (stereo unspecified),,"inconclusive: 29.1 µM [cytotoxic, single point]"
CC1(c2ccc(Cl)cc2)NC(=O)CS1 (stereo unspecified),inactive: -19.8%,
Fc1ccc(Nc2ccnc(C(F)(F)F)c2)cc1,,"inconclusive: 41.1 µM [cytotoxic, full curve, poor fit]"
O=C(COc1ccc(F)cc1)Nc1nc(-c2ccccn2)cs1,,"inconclusive: 29.1 µM [cytotoxic, single point]"
COc1ccc2sc(-c3ccc(SC)cc3)c(-c3ccc(O)cc3)c2c1,,"inconclusive: 16.4 µM [cytotoxic, partial curve]"
CCOC(=O)/C(C#N)=C/c1cc(C)n(-c2ccc(C)cc2)c1C,,"inconclusive: 18.4 µM [cytotoxic, partial curve, poor fit]"
CC(=O)c1ccc(OC2(C)CCN(Cc3ccccc3OC(F)F)C2)cc1 (stereo unspecified),inactive: 0%,
COc1ccc(-c2cc(C)no2)cc1S(=O)(=O)N(C)c1ccc(C)cc1,,"inconclusive: 23.1 µM [cytotoxic, single point]"
CC(C)C[C@@H](NC(=O)C1CCC(CNC(=O)[C@H](Cc2ccccc2)NC(=O)OC(C)(C)C)CC1)C(=O)O (stereo partly specified),inactive: 1.91%,
CC(C)(C)c1ccc(C(=O)NCCc2csc(-c3ccc(Cl)cc3)n2)cc1,inactive: 0.277%,
COc1ccccc1C(=O)N/N=C/c1cnc2ccccc2n1,,"inconclusive: 23.1 µM [rising, partial curve, poor fit]"
CC1CC(C)CN(C(=O)c2ccc(NC(=O)c3ccc(=O)[nH]c3)cc2)C1 (stereo unspecified),inactive: 1.83%,
O=C(CN1CCOCC1)N/N=C/c1c(O)ccc2ccccc12,,"inconclusive: 29.1 µM [cytotoxic, single point]"
Cc1ccc(C(=O)NC2CC2)cc1S(=O)(=O)N1CCOCC1,inactive: -0.868%,
O=C(N=Nc1c(O)[nH]c2ccc(Br)cc12)c1ccccc1-n1cccc1,,active: 5.17 µM
